According to patent US20160046716A1 (Dana-Farber, published 2016):
No constants are given. Whether binding was seen depends on the method and setting. Some results given as binding are weak or reduced against the parent protein; the word gives no strength. For part of these data: Where a sequence is shown, tags or fusion partners need not be part of it.

What was measured:
[1] = biological target: T1, Human MICA (Western blot, native or denatured) (human) (UniProt Q29983); test: Western blot after denaturing or non-denaturing PAGE
T1 sequence (looked up): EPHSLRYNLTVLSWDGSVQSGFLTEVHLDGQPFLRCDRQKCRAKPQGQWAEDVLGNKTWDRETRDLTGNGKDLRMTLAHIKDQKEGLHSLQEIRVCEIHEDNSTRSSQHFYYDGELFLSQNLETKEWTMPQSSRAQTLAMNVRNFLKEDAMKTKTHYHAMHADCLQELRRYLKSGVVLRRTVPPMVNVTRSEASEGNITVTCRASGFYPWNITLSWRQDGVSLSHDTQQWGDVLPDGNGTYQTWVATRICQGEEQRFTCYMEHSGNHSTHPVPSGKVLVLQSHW

[2] = biological target: T2, Human MICB (Western blot, native or denatured) (human) (UniProt Q29980); test: as above
T2 sequence (looked up): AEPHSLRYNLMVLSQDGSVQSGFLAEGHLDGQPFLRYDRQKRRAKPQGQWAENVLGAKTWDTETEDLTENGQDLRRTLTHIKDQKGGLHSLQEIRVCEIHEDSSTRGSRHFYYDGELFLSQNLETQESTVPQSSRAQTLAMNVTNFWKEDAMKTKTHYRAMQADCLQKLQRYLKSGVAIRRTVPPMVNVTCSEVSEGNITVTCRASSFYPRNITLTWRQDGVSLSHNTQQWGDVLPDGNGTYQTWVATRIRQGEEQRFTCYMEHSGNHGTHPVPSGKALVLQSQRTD

[3] = biological target: T3, MICA on human tumor cell lines (RPMI 8226, Xg-1, OVCAR3, U937, K028, 1792, 827, MCF7) (human) (UniProt Q29983); test: flow cytometry on tumor cell lines, directly conjugated antibody at 10 µg/ml
T3 sequence (looked up): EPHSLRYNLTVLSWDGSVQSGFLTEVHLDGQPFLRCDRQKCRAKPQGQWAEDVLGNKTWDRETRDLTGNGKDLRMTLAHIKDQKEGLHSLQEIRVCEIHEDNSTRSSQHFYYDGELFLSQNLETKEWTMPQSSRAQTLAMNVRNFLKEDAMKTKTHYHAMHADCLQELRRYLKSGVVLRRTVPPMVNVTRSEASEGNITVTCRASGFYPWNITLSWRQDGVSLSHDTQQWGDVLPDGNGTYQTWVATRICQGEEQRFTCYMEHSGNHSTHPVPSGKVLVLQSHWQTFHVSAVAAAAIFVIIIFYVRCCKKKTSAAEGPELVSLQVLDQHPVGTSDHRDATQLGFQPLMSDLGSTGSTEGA

[4] = biological target: T4, MICA on autologous tumor cells (CD33+CD34+ bone marrow cells of patient CM24002) (human) (UniProt Q29983); test: flow cytometry on CD33+CD34+ tumor cells from bone marrow, antibody at 10 µg/ml
T4 sequence (looked up): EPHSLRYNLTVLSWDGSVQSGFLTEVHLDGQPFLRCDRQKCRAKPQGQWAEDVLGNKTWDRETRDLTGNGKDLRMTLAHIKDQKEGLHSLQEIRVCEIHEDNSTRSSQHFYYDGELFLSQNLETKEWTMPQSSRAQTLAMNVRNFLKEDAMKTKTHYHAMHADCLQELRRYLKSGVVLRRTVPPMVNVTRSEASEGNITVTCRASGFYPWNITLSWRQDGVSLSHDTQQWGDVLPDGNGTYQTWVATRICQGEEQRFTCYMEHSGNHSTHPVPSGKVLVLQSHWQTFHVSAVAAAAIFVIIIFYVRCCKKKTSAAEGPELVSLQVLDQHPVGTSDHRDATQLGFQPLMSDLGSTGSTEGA

[5] = biological target: T3, MICA on human tumor cell lines (RPMI 8226, Xg-1, OVCAR3, U937, K028, 1792, 827, MCF7) (human); test: flow cytometry (figure legend)
[6] = biological target: T4, MICA on autologous tumor cells (CD33+CD34+ bone marrow cells of patient CM24002) (human); test: flow cytometry (figure legend)
[7] = biological target: T5, recombinant MICA*001 conjugated to Luminex beads (commercial kit) (human) (UniProt Q29983); test: Luminex bead assay (One Lambda kit), PE anti-human IgG secondary; bars assigned by their order in the legend box
T5 sequence (looked up): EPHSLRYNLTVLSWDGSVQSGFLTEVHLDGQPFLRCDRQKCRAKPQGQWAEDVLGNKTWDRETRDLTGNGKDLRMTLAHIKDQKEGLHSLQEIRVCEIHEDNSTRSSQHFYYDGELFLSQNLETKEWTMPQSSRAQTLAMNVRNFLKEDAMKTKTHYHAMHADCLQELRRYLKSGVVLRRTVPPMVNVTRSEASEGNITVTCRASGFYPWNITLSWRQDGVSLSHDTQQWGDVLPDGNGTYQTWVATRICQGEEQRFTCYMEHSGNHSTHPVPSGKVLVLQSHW

[8] = biological target: T6, MICA antigen (UniGene Hs.130838) with a C-terminal BirA tag (human) (UniProt Q29983); test: bead assays: MICA-coated Luminex beads and MICA-coated streptavidin beads by flow cytometry
T6 sequence: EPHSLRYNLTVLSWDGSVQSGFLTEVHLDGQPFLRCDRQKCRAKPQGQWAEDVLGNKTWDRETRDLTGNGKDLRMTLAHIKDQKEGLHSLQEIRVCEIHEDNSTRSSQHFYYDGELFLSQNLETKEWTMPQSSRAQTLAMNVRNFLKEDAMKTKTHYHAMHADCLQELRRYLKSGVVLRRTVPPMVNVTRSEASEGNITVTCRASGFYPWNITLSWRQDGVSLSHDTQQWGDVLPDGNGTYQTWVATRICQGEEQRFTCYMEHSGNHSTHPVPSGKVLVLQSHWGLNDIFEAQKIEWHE

[9] = biological target: T7, human MICA on transduced B16 melanoma cells (human) (UniProt Q29983); test: flow cytometry, antibody at 10 ug/ml (figure legend)
T7 sequence (looked up): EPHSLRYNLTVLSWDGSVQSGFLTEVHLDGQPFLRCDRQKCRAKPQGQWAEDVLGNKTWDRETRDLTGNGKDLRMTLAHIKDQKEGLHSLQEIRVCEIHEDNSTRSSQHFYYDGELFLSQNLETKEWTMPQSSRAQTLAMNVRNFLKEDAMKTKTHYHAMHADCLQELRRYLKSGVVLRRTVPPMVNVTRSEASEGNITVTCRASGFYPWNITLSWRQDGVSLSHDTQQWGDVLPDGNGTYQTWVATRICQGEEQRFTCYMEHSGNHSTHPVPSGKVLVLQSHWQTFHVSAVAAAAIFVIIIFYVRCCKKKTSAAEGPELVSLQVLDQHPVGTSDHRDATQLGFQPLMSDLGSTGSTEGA

[10] = biological target: T8, MICA*009 reference sequence (overlapping peptide array spanning the extracellular domains) (human) (UniProt Q29983); test: overlapping peptide array, Cy5 anti-human IgG
T8 sequence: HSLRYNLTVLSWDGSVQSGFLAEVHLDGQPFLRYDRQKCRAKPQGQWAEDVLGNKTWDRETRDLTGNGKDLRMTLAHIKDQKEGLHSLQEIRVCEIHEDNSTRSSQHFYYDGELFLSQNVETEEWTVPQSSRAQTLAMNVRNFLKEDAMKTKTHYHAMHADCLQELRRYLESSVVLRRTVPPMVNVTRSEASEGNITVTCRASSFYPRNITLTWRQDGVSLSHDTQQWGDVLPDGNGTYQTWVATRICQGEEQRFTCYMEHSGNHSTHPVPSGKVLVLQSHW

Measured: binding

B1: CM24002 Ab2 (antibody, V domains shown)
VH: QVQLQESGPGLVEPSGTLSLTCTVSGGSISRSNWWSWVRQPPGEGLEWIGEIHHIGRSSYNPSLKSRVTMSVDKSQNQFSLRLTSVTAADTAVYYCAKNGYYAMDVWGQGTTVTVSS
VL: EIVLTQSPGTLSLSPGERATLSCRASQSVSSDFLAWYQQKPGQAPRLLIYATSFRATGISDRFSGSGSGTDFSLTINRLEPEDFAVYYCQHYRSSPPWYTFAQGTKLDMRRTVAAPSV
notes: also called anti-MICA antibody ID-6; antibody ID 6
binds: [1] | [2] | [3] | [4] | [5] | [6]

B2: MICA-Ab20 (antibody, V domains shown)
VH: QVQLQQWGAGLLKPSETLALTCAVSGGSFTDHYWSWIRQAPGKGLEWIGEINHSGVTNYNPSLKSRLTISVDTSKSQFSLRLTSVTAADTALYYCAKTGLYYDDVWGTFRPRGGFDSWGQGTLVTVSS
VL: DIVMTQSPDSLAVSLGERATINCKSSQSILYSSDNKNYLAWYQHKPGQPPKLLFYWASIRESGVPDRFSGGGSGTDFTLTISSLQAEDVAVYYCQQYYSPPCSFGQGTKLEIQ
notes: also called anti-MICA antibody ID-1; antibody ID 1
binds: [7] | [8]

B3: CM33322 Ab29 (antibody, V domains shown)
VH: EVQLLESGGGLVQPGGSLRLSCAASGFTFSSYGLTWIRQAPGKGLEWVSSISGSGNNTYYADSVKGRFTISRDKVKKTLYLQMDSLTVGDTAVYYCLGVGQGHGIPVIVSS
VL: DVVMTQSPLSLPVTLGQPASISCRSSQSLVHSDGNTYLNWFHQRPGQSPRRLIYKVSKRDSGVPDRFSGSGSGSDFTLKISRVEAEDVGIYYCMQGTHWPTFGQGTKVEIKRTVAA
binds: [9] | [3] | [5]

B4: CM33322 Ab11 (antibody, V domains shown)
VH: QVQLQESGPGLVKPSENLSLTCTVSDASMSDYHWSWIRQAAGKGLEWIGRMYSTGSPYYKPSLKGRVTMSIDTSKNQFSLKLASVTAADTAIYYCASGQHIGGWVPPDFWGQGTLVTVSS
VL: DIVMTQTPLSSPVTLGQPASISCRSSEGLVYSDGDTYLSWFHQRPGQPPRLLIYKISNRFSGVPDRFSGSGAGTDFTLKISRVEAEDVGVYYCMQATHFPWTFGQGTKVEVKR
notes: also called CM33322 mAb11; CM33322 11
binds: [10]
